{
  "source": "paper PMC4882497",
  "about": "(British Journal of Pharmacology, 2016)",
  "assay": "general procedure: Fmoc solid-phase peptide synthesis; Rink amide resin (Iris Biotech; loading capacity 0.7 mmol/g)",
  "conditions": "whole synthesis, analytical HPLC, Jupiter Proteo 90 Å 4.6 × 250 mm; identity by MALDI-TOF/TOF MS",
  "data": [
    {"substance": "[K^30(PEG2)]hPP2‐36", "values": [
      {"measurement": "final HPLC purity", "value": ">95", "unit": "%"}
    ]}
  ]
}
